Measured values: article PMC4358365, “Conserved mechanisms of microtubule-stimulated ADP release, ATP binding, and force generation in transport kinesins” (eLife, 2014)
No constants are given. Whether binding was seen depends on the method and setting. Binding calls can cover weak binding; strength is not graded here.

Experiments:
[1] = biological target: α-tubulin (bovine, within the paclitaxel-stabilised microtubule) (bovine); experiment: cryo-EM structure; Mg-ADP state: 5 μM MT in BrB20, then Kin3 10 μM in BrB20 with 2 mM ADP, applied in turn to the grid; Vitrobot 25°C, 100% humidity; 13 protofilament MTs; both purified
[2] = biological target: β-tubulin (bovine, within the paclitaxel-stabilised microtubule) (bovine); experiment: as above
[3] = biological target: paclitaxel-stabilised microtubule polymerised from bovine αβ-tubulin (bovine); experiment: as above
[4] = biological target: α-tubulin (bovine, within the paclitaxel-stabilised microtubule) (bovine); experiment: cryo-EM structure; Mg-AMPPNP state: 5 μM MT in BrB20, then motor domain in BrB20 with 2 mM AMPPNP, Kin3 5 μM, Kin1 50 μM; Vitrobot 25°C, 100% humidity; 13 protofilament MTs; both purified
[5] = biological target: β-tubulin (bovine, within the paclitaxel-stabilised microtubule) (bovine); experiment: as above
[6] = biological target: paclitaxel-stabilised microtubule polymerised from bovine αβ-tubulin (bovine); experiment: as above
[7] = biological target: α-tubulin (bovine, within the paclitaxel-stabilised microtubule) (bovine); experiment: cryo-EM structure; Mg-ADPAlFx state: 5 μM MT in BrB20, then motor domain in BrB20 with 2 mM ADP + AlF4, Kin3 5 μM, Kin1 50 μM; Vitrobot 25°C, 100% humidity; 13 protofilament MTs; both purified
[8] = biological target: β-tubulin (bovine, within the paclitaxel-stabilised microtubule) (bovine); experiment: as above
[9] = biological target: paclitaxel-stabilised microtubule polymerised from bovine αβ-tubulin (bovine); experiment: as above
[10] = biological target: α-tubulin (bovine, within the paclitaxel-stabilised microtubule) (bovine); experiment: cryo-EM structure; no nucleotide (NN) state: 5 μM MT in BrB20, then motor domain in BrB20 with apyrase (10 units/ml), Kin3 5 μM, Kin1 100 μM; Vitrobot 25°C, 100% humidity; 13 protofilament MTs; both purified
[11] = biological target: β-tubulin (bovine, within the paclitaxel-stabilised microtubule) (bovine); experiment: as above
[12] = biological target: paclitaxel-stabilised microtubule polymerised from bovine αβ-tubulin (bovine); experiment: as above

Measured: binding

B1: human kinesin-3 (Kin3) motor domain construct (Kif1A, residues 1–361) (domain or fragment, UniProt Q12756 1-361)
chain: MAGASVKVAVRVRPFNSREMSRDSKCIIQMSGSTTTIVNPKQPKETPKSFSFDYSYWSHTSPEDINYASQKQVYRDIGEEMLQHAFEGYNVCIFAYGQTGAGKSYTMMGKQEKDQQGIIPQLCEDLFSRINDTTNDNMSYSVEVSYMEIYCERVRDLLNPKNKGNLRVREHPLLGPYVEDLSKLAVTSYNDIQDLMDSGNKARTVAATNMNETSSRSHAVFNIIFTQKRHDAETNITTEKVSKISLVDLAGSERADSTGAKGTRLKEGANINKSLTTLGKVISALAEMDSGPNKNKKKKKTDFIPYRDSVLTWLLRENLGGNSRTAMVAALSPADINYDETLSTLRYADRAKQIRCNAVIN
binds: all assays above
